Experimental data as given in article PMC12746146.
Construct, isoform or probe ends are uncertain for at least one entry. Where cells or extracts were used, other partners may take part. Weaker means in comparison with the reference protein, sequence or condition of that experiment.

Chains of the proteins cited; added tags and fusions are not shown. Residues count along the entry.
UniProt Q13308, 31-1070: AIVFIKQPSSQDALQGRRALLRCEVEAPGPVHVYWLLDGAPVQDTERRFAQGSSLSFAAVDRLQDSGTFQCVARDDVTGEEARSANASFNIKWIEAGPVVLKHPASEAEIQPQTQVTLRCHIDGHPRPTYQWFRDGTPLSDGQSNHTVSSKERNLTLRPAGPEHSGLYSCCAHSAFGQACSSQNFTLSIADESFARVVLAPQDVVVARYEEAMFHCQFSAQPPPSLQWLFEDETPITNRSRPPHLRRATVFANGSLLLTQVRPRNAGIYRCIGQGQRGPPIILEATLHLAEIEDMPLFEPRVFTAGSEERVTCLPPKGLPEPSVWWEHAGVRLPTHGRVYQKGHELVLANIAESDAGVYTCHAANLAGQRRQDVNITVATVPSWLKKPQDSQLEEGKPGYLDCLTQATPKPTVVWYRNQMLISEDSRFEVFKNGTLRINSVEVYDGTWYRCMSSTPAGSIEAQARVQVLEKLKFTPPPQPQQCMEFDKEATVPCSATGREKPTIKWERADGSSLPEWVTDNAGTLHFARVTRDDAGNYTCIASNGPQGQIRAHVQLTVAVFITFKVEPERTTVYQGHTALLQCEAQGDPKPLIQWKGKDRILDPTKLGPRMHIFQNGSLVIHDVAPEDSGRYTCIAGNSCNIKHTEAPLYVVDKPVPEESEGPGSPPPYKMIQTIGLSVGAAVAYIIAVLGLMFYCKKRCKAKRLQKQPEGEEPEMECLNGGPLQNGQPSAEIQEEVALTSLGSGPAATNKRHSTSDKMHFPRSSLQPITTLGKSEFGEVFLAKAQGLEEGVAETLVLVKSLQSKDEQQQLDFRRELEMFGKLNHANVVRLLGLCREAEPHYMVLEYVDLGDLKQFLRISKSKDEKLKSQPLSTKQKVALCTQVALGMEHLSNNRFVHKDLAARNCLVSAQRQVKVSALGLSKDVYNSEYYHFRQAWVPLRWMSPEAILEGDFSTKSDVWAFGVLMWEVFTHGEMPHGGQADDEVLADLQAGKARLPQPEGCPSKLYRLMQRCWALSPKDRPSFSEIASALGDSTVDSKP

Biological target: PTK7 (on HCT-8 cells) (UniProt Q13308)
Assay: cell binding with single-cell sequencing read-out (bound oligo counts)
Settings: Ion-seq: 1.0x10^6 cells washed, protein on the cell surface, single-stranded DNA

Sequence	binding result (counts lower than aptamer group)	binding result (200 nM aptamer)
TTGTCTTCCTAAGACCGCTTGGCCTCCGACTTAAAACCTAGCTGCTGCGGCTGCATACTGTACTGTCGAGAAATAGAAAAAAAAAAAAAAAAAAAAAAAAAA [Scramble strand]	binds more weakly	–
TTGTCTTCCTAAGACCGCTTGGCCTCCGACTTAAAATCTAACTGCTGCGCCGCCGGGAAAATACTGTACGGTTAGAAAAAAAAAAAAAAAAAAAAAAAAAA [Sgc8c-oligo]	–	binds
